Results from the supplement of paper PMC10973195.
± gives the standard deviation of the averaged measurements. Some of the results follow. These are raw signals, not scaled to a control.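 In this assay, LPS from bacteria induces microglia-mediated neuronal death in a neuron–microglia–astrocyte co-culture, a model of inflammatory neurodegeneration. Compounds were compared against same-plate DMSO vehicle wells, with the SYK inhibitor BAY61-3606 as reference neuroprotective control.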

How the values were obtained:
Settings in all cases: 1 µM, treatment time 3 days
[1] = system: rat primary cerebellar neuron-glia coculture; assay: microglia count (IB4+) per image field (cells per field); higher = more microglia
[2] = system: rat primary cerebellar neuron-glia coculture; assay: live neuron count (NeuO+) per image field (cells per field); higher = more surviving neurons
[3] = system: rat primary cerebellar neuron-glia coculture; assay: median microglial FormFactor (circularity) per image (dimensionless (0-1)); higher = rounder, more ameboid microglia
[4] = system: rat primary cerebellar neuron-glia coculture; assay: necrotic cell count (DRAQ7+) per image field (cells per field); higher = more necrosis

Row | SMILES | microglia count ([1]; LPS 0 ng/mL) | microglia count ([1]; LPS 100 ng/mL) | live neuron count ([2]; LPS 0 ng/mL) | live neuron count ([2]; LPS 100 ng/mL) | median microglial FormFactor ([3]; LPS 0 ng/mL) | median microglial FormFactor ([3]; LPS 100 ng/mL) | necrotic cell count ([4]; LPS 0 ng/mL) | necrotic cell count ([4]; LPS 100 ng/mL)
1 | CN1[C@@H](CC(=O)c2ccccc2)CCC[C@H]1C[C@H](O)c1ccccc1 | 326 ± 470 | 455 ± 81 | 2400 ± 710 | 579 ± 590 | 0.529 ± 0.068 | 0.664 ± 0.071 |  | 
2 | CCCc1cc(C)[nH]c(=O)c1CNC(=O)c1cc(-c2ccnc(N3CCN(C)CC3)c2)cc2c1cnn2C(C)C | 195 ± 45 | 388 ± 87 | 1870 ± 340 | 761 ± 370 | 0.515 ± 0.082 | 0.73 ± 0.095 |  | 
3 | Cc1cccc(Nc2nc(N[C@@H]3CCCC[C@@H]3N)ncc2C(N)=O)c1 | 42.9 ± 9.5 | 389 ± 67 | 2780 ± 530 | 2030 ± 600 | 0.655 ± 0.078 | 0.521 ± 0.12 |  | 
4 | Cc1ccc(S(N)(=O)=O)cc1 | 164 ± 48 | 438 ± 95 | 2680 ± 470 | 456 ± 530 | 0.543 ± 0.13 | 0.636 ± 0.081 |  | 
5 | Fc1ccc(C(c2ccc(F)cc2)N2CCN(C/C=C/c3ccccc3)CC2)cc1 | 174 ± 68 | 484 ± 68 | 822 ± 370 | 898 ± 490 | 0.631 ± 0.048 | 0.533 ± 0.043 |  | 
6 | c1ccc(-c2ccc(CSc3nnc(-c4ccc5c(c4)OCO5)o3)cc2)cc1 | 181 ± 72 | 454 ± 94 | 2610 ± 510 | 275 ± 130 | 0.535 ± 0.1 | 0.657 ± 0.059 |  | 
7 | CC(C)Cc1ccc([C@@H](C)C(=O)NS(C)(=O)=O)cc1 | 328 ± 590 | 423 ± 60 | 2420 ± 750 | 265 ± 210 | 0.539 ± 0.081 | 0.676 ± 0.056 |  | 
8 | COc1ccc2c(c1)[C@]1(C[C@H]1c1ccc3c(/C=C/c4ccc(CN5C[C@@H](C)O[C@@H](C)C5)cc4)n[nH]c3c1)C(=O)N2 | 141 ± 47 | 430 ± 94 | 2630 ± 400 | 295 ± 350 | 0.472 ± 0.097 | 0.69 ± 0.071 |  | 
9 | Oc1cc2c(cc1O)C(c1ccccc1)CNCC2 (stereo not given) | 162 ± 30 | 416 ± 52 | 2710 ± 660 | 446 ± 480 | 0.559 ± 0.066 | 0.696 ± 0.079 |  | 
10 | C[C@@H]1CN(C(=O)C[C@H](N)C(=O)N2Cc3ccccc3C2)CCN1C(c1ccc(F)cc1)c1ccc(F)cc1 | 248 ± 140 | 435 ± 98 | 1370 ± 490 | 161 ± 170 | 0.501 ± 0.075 | 0.711 ± 0.043 | 78.6 ± 36 | 899 ± 350
11 | C[C@H](NC(=O)Cc1ccc(-c2ccc3cccnc3n2)cc1)c1ccc(-c2ccc(F)c(C(F)(F)F)c2)cc1 | 185 ± 54 | 427 ± 78 | 2660 ± 710 | 469 ± 610 | 0.565 ± 0.1 | 0.647 ± 0.07 | 85.1 ± 42 | 939 ± 270
12 | NC(=O)c1ccc(N(C(N)=O)c2c(F)cccc2F)nc1-c1ccc(F)cc1F | 169 ± 44 | 441 ± 93 | 2560 ± 500 | 694 ± 940 | 0.547 ± 0.085 | 0.666 ± 0.071 |  | 
13 | O=C(O)Cc1ccccc1Nc1c(Cl)cccc1Cl | 161 ± 28 | 556 ± 74 | 2670 ± 470 | 602 ± 460 | 0.543 ± 0.075 | 0.454 ± 0.059 | 80.6 ± 27 | 860 ± 300
14 | CC(C)(C)NC(=O)[C@H]1CC[C@H]2[C@@H]3CC[C@H]4NC(=O)C=C[C@]4(C)[C@H]3CC[C@]12C | 178 ± 45 | 422 ± 88 | 2620 ± 470 | 305 ± 260 | 0.545 ± 0.11 | 0.688 ± 0.06 | 82.8 ± 31 | 1040 ± 450
15 | CO/C(O)=C1\C(C)=NC(C)=C(C(=O)O[C@H]2CCN(Cc3ccccc3)C2)[C@H]1c1cccc([N+](=O)[O-])c1 | 270 ± 52 | 390 ± 81 | 903 ± 420 | 220 ± 130 | 0.424 ± 0.056 | 0.701 ± 0.057 | 58 ± 27 | 880 ± 350
16 | CCC[C@@H](NC(=O)N1C(=O)C(CC)(CC)[C@@H]1Oc1ccc(C(=O)N2CCN(C)CC2)cc1)c1ccc2c(c1)OCO2 | 158 ± 54 | 430 ± 73 | 2380 ± 370 | 603 ± 660 | 0.536 ± 0.086 | 0.67 ± 0.089 | 93.3 ± 25 | 954 ± 340
17 | CCOC(=O)C1=CCCCC1S(=O)(=O)Nc1ccc(F)cc1Cl (stereo not given) | 307 ± 510 | 759 ± 150 | 2450 ± 740 | 2330 ± 420 | 0.53 ± 0.054 | 0.362 ± 0.061 | 81.9 ± 40 | 44.2 ± 21
18 | CCCCOc1nc(N)c2c(n1)N(Cc1cccc(CN3CCCC3)c1)CC(=O)N2 | 901 ± 140 | 524 ± 230 | 1880 ± 530 | 181 ± 300 | 0.371 ± 0.043 | 0.598 ± 0.088 | 107 ± 140 | 1110 ± 510
19 | Cn1c(CO)c(-c2ccccc2)c2cc([N+](=O)[O-])ccc21 | 169 ± 62 | 423 ± 57 | 2600 ± 490 | 427 ± 370 | 0.533 ± 0.079 | 0.659 ± 0.067 | 83.3 ± 28 | 957 ± 340
20 | O=C(O)/C=C/c1ccc(O)c(O)c1 | 206 ± 36 | 401 ± 77 | 1040 ± 440 | 459 ± 300 | 0.489 ± 0.083 | 0.764 ± 0.053 |  | 
21 | O=C(NCCCNc1nc(Nc2cccc(NC(=O)N3CCCC3)c2)ncc1I)c1cccs1 | 154 ± 55 | 441 ± 70 | 2570 ± 470 | 1790 ± 640 | 0.548 ± 0.087 | 0.632 ± 0.086 | 121 ± 49 | 324 ± 170
22 | COc1ccc(-c2c(C)nn3c(NCCN4CCOCC4)cc(C)nc23)cc1OC | 188 ± 78 | 437 ± 140 | 2680 ± 450 | 644 ± 910 | 0.52 ± 0.07 | 0.691 ± 0.11 |  | 
23 | O=c1cc(-c2cccc3c2Sc2ccccc2S3)oc(N2CCOCC2)c1 | 313 ± 550 | 472 ± 72 | 1840 ± 750 | 463 ± 310 | 0.57 ± 0.073 | 0.704 ± 0.037 | 98.8 ± 64 | 1430 ± 530
24 | COc1ccc2[nH]cc(CCNC(C)=O)c2c1 | 228 ± 150 | 436 ± 74 | 2480 ± 410 | 330 ± 220 | 0.567 ± 0.067 | 0.643 ± 0.1 | 65.5 ± 14 | 1060 ± 370
25 | O=C(O)c1cc2sccc2[nH]1 | 208 ± 120 | 525 ± 350 | 2600 ± 480 | 319 ± 240 | 0.531 ± 0.097 | 0.66 ± 0.06 | 74.5 ± 17 | 927 ± 370
26 | N#CC(C#N)CC(=O)c1ccccc1 | 191 ± 69 | 464 ± 91 | 2620 ± 390 | 321 ± 420 | 0.553 ± 0.063 | 0.661 ± 0.063 | 71.7 ± 40 | 908 ± 330
27 | COc1ccc(NS(=O)(=O)c2sc3ccc(Cl)cc3c2C)cc1N1CCNCC1 | 358 ± 500 | 459 ± 87 | 2110 ± 650 | 491 ± 500 | 0.533 ± 0.069 | 0.628 ± 0.1 |  | 

Molecules above that contain an NH in an aromatic ring:
Row | SMILES | microglia count ([1]; LPS 0 ng/mL) | microglia count ([1]; LPS 100 ng/mL) | live neuron count ([2]; LPS 0 ng/mL) | live neuron count ([2]; LPS 100 ng/mL) | median microglial FormFactor ([3]; LPS 0 ng/mL) | median microglial FormFactor ([3]; LPS 100 ng/mL) | necrotic cell count ([4]; LPS 0 ng/mL) | necrotic cell count ([4]; LPS 100 ng/mL)
2 | CCCc1cc(C)[nH]c(=O)c1CNC(=O)c1cc(-c2ccnc(N3CCN(C)CC3)c2)cc2c1cnn2C(C)C | 195 ± 45 | 388 ± 87 | 1870 ± 340 | 761 ± 370 | 0.515 ± 0.082 | 0.73 ± 0.095 |  | 
8 | COc1ccc2c(c1)[C@]1(C[C@H]1c1ccc3c(/C=C/c4ccc(CN5C[C@@H](C)O[C@@H](C)C5)cc4)n[nH]c3c1)C(=O)N2 | 141 ± 47 | 430 ± 94 | 2630 ± 400 | 295 ± 350 | 0.472 ± 0.097 | 0.69 ± 0.071 |  | 
24 | COc1ccc2[nH]cc(CCNC(C)=O)c2c1 | 228 ± 150 | 436 ± 74 | 2480 ± 410 | 330 ± 220 | 0.567 ± 0.067 | 0.643 ± 0.1 | 65.5 ± 14 | 1060 ± 370
25 | O=C(O)c1cc2sccc2[nH]1 | 208 ± 120 | 525 ± 350 | 2600 ± 480 | 319 ± 240 | 0.531 ± 0.097 | 0.66 ± 0.06 | 74.5 ± 17 | 927 ± 370
